PubChem BioAssay AID602196 | INSERM – 2012
Here is an unselected part of about 23,000 deposited reagents. 455 of them (2%) count as active. 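Active includes both protection and sensitisation; some change values fall well beyond the stated -50 to +50 range.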 Further read-outs or replicates are left out here. No sequences are given here. Not stated in the record: the amount of reagent.

Screen: 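Genes whose knock-down alters cisplatin killing of lung cancer cells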
System: human A549 lung cancer cells
Knock-down reagent: siRNA pair against human genes
Time to read-out: 48 h transfection before cisplatin; time from cisplatin to read-out not stated
Conditions: cisplatin at a dose killing half of control-siRNA cells; exact dose and duration not given
Measurement: 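Cisplatin cell death as a shift from the 50% death seen with control siRNA; siRNAs toxic or growth-blocking alone scored 0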
Direction: two-siRNA summed score (-2 to +2): higher = both siRNAs protect from cisplatin killing; -2 means both sensitise; mean protection from cisplatin (shift in death): higher = protection from cisplatin killing
Rule for the call: 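Each siRNA scores 0 if harmful alone by LDH or WST-1, otherwise +1 if it reduces and -1 if it increases cisplatin killing; a gene is active when both siRNAs agree (sum +2 or -2)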
Calls: active = both siRNAs shift cisplatin killing the same way; inactive = no consistent shift, or siRNA harmful alone

For FADD, the entry reads two-siRNA summed score (-2 to +2) = 0; mean protection from cisplatin (shift in death) (%) = 4.1; inactive.
KLHDC7B showed two-siRNA summed score (-2 to +2) = -1; mean protection from cisplatin (shift in death) (%) = -1.9; inactive.
For RDH13, the entry reads two-siRNA summed score (-2 to +2) = 1; mean protection from cisplatin (shift in death) (%) = 12.8; inactive.
XPO7 showed two-siRNA summed score (-2 to +2) = 0; mean protection from cisplatin (shift in death) (%) = -13.2; inactive.
UFD1 scored two-siRNA summed score (-2 to +2) = 0; mean protection from cisplatin (shift in death) (%) = -0.8; inactive.
After knock-down of SDC1, the screen gave two-siRNA summed score (-2 to +2) = 0; mean protection from cisplatin (shift in death) (%) = 13.8; inactive.
LOC128710 showed two-siRNA summed score (-2 to +2) = 0; mean protection from cisplatin (shift in death) (%) = 6; inactive.
With knock-down of ATP6AP1 the results were two-siRNA summed score (-2 to +2) = 0; mean protection from cisplatin (shift in death) (%) = 2.9; inactive.
Knock-down of GCNT3 resulted in: two-siRNA summed score (-2 to +2) = 1; mean protection from cisplatin (shift in death) (%) = 8.8; inactive.
Silencing of FMO5 gave: two-siRNA summed score (-2 to +2) = 0; mean protection from cisplatin (shift in death) (%) = -27; inactive.
With knock-down of TELO2 the results were two-siRNA summed score (-2 to +2) = -1; mean protection from cisplatin (shift in death) (%) = -9.6; inactive.
Against CXCL1, the values are two-siRNA summed score (-2 to +2) = 0; mean protection from cisplatin (shift in death) (%) = 7.9; inactive.
For CAVIN3, the entry reads two-siRNA summed score (-2 to +2) = 1; mean protection from cisplatin (shift in death) (%) = 16.8; inactive.
Against KIR3DX1 the deposit lists two-siRNA summed score (-2 to +2) = 0; mean protection from cisplatin (shift in death) (%) = 11.2; inactive.

6 successive reagents already listed:
LOC128710 → two-siRNA summed score (-2 to +2) = 0; mean protection from cisplatin (shift in death) (%) = 6; activity call = inactive
ATP6AP1 → two-siRNA summed score (-2 to +2) = 0; mean protection from cisplatin (shift in death) (%) = 2.9; activity call = inactive
GCNT3 → two-siRNA summed score (-2 to +2) = 1; mean protection from cisplatin (shift in death) (%) = 8.8; activity call = inactive
FMO5 → two-siRNA summed score (-2 to +2) = 0; mean protection from cisplatin (shift in death) (%) = -27; activity call = inactive
TELO2 → two-siRNA summed score (-2 to +2) = -1; mean protection from cisplatin (shift in death) (%) = -9.6; activity call = inactive
CXCL1 → two-siRNA summed score (-2 to +2) = 0; mean protection from cisplatin (shift in death) (%) = 7.9; activity call = inactive

The listing continues:
With knock-down of KMT2E, the screen gave two-siRNA summed score (-2 to +2) = 0; mean protection from cisplatin (shift in death) (%) = 1.8; inactive.
Against HELLS, the values are two-siRNA summed score (-2 to +2) = 0; mean protection from cisplatin (shift in death) (%) = 1.5; inactive.
After knock-down of GATAD1, the screen gave two-siRNA summed score (-2 to +2) = -1; mean protection from cisplatin (shift in death) (%) = -13.9; inactive.
Depletion of KIAA0339 came out at: two-siRNA summed score (-2 to +2) = -1; mean protection from cisplatin (shift in death) (%) = -7.4; inactive.
TEX12 showed two-siRNA summed score (-2 to +2) = 0; mean protection from cisplatin (shift in death) (%) = 2.6; inactive.
PDE4B showed two-siRNA summed score (-2 to +2) = 0; mean protection from cisplatin (shift in death) (%) = 5.6; inactive.
Knock-down of SYNE2 came out at: two-siRNA summed score (-2 to +2) = 0; mean protection from cisplatin (shift in death) (%) = -10.4; inactive.
CTTNBP2NL scored two-siRNA summed score (-2 to +2) = 0; mean protection from cisplatin (shift in death) (%) = 4.6; inactive.
For SSTR5-AS1, the entry reads two-siRNA summed score (-2 to +2) = 0; mean protection from cisplatin (shift in death) (%) = -6.1; inactive.
With knock-down of ACTL8, the screen gave two-siRNA summed score (-2 to +2) = 0; mean protection from cisplatin (shift in death) (%) = 11.7; inactive.
For CCSAP, the values are two-siRNA summed score (-2 to +2) = 0; mean protection from cisplatin (shift in death) (%) = 4.4; inactive.
Knock-down of BUB1B came out at: two-siRNA summed score (-2 to +2) = 0; mean protection from cisplatin (shift in death) (%) = -14.1; inactive.
After knock-down of FBXW11, the screen gave two-siRNA summed score (-2 to +2) = -1; mean protection from cisplatin (shift in death) (%) = -14.9; inactive.
Depletion of LOC442032 resulted in: two-siRNA summed score (-2 to +2) = 0; mean protection from cisplatin (shift in death) (%) = 10.9; inactive.
Silencing of KIF3B came out at: two-siRNA summed score (-2 to +2) = -1; mean protection from cisplatin (shift in death) (%) = -3; inactive.
HCFC1 showed two-siRNA summed score (-2 to +2) = 0; mean protection from cisplatin (shift in death) (%) = -1.7; inactive.
Silencing of KLHL42 came out at: two-siRNA summed score (-2 to +2) = 0; mean protection from cisplatin (shift in death) (%) = 2.1; inactive.
For LOC283994, the entry reads two-siRNA summed score (-2 to +2) = 1; mean protection from cisplatin (shift in death) (%) = 15.1; inactive.
Knock-down of KAZN gave: two-siRNA summed score (-2 to +2) = 0; mean protection from cisplatin (shift in death) (%) = 0.8; inactive.
LOC144631 scored two-siRNA summed score (-2 to +2) = 1; mean protection from cisplatin (shift in death) (%) = 18.3; inactive.
FRG1BP scored two-siRNA summed score (-2 to +2) = 0; mean protection from cisplatin (shift in death) (%) = -7.4; inactive.
For GATM, the entry reads two-siRNA summed score (-2 to +2) = -1; mean protection from cisplatin (shift in death) (%) = 10; inactive.
After knock-down of LOC400999, the screen gave two-siRNA summed score (-2 to +2) = 0; mean protection from cisplatin (shift in death) (%) = -2.6; inactive.
Knock-down of LOC441157 came out at: two-siRNA summed score (-2 to +2) = 0; mean protection from cisplatin (shift in death) (%) = 10.6; inactive.
Knock-down of QRICH1 resulted in: two-siRNA summed score (-2 to +2) = 0; mean protection from cisplatin (shift in death) (%) = -12.7; inactive.
With knock-down of LOC441875, the screen gave two-siRNA summed score (-2 to +2) = 0; mean protection from cisplatin (shift in death) (%) = 10.6; inactive.
